Experimental data published in PubChem BioAssay AID2685 (National Center for Advancing Translational Sciences (NCATS), 2010).
The list shows a part of the results. Further columns of the screen follow, without active or inactive calls. The list favours compounds with an active or inconclusive main result. The note in brackets gives the kind of curve behind each potency; many fits are weak.

Assay: qHTS Assay for Lipid Storage Modulators in Drosophila S3 Cells;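 on cell number change: cells counted by Cell Tracker Red CMTPX staining in the red channel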
Details: BODIPY lipid droplet fluorescence, 18-24 h; for cell number change: measured here: cell count max response, cells fed with added oleic acid
Method in brief: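 Drosophila S3 cells got compounds at several concentrations plus oleic acid (400 uM solution). Laser-scanning cytometry with 488 nm excitation read lipid droplets at 500-530 nm and cells at 575-640 nm. Percent activity was relative to 20 uM Triacsin C.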

[1] = measured here: lipid fluorescence (Fed channel) AC50, cells fed with added oleic acid
[2] = measured here: cell number channel AC50, cells fed with added oleic acid

| SMILES | cell number change [%] | AC50 [1] | AC50 [2] |
| --- | --- | --- | --- |
| O=C(COc1ccc(-n2cnnn2)cc1)Nc1cc(Cl)cc(Cl)c1 | 18 |  |  |
| Cc1ccc(C(=O)Nc2cccc(S(=O)(=O)N(C)c3ccccc3)c2)o1 | 3.42 | 3.66 µM [rising, partial curve] |  |
| CCN(C(=O)C1=COCCO1)c1nc2c(C)cccc2s1 |  | 2.59 µM [rising, single point] |  |
| O=C(NCc1ccco1)c1ccc2ccccc2n1 | 18.5 | 0.92 µM [rising, full curve, poor fit] |  |
| O=C(c1ccc(COc2ccccc2[N+](=O)[O-])o1)N1CCCCCC1 | -20.6 |  |  |
| COc1ccc(S(=O)(=O)N(C)C)cc1NC(=O)c1ccc2c(c1)NC(=O)C(C)S2 (stereo not drawn) | -19.7 | 4.61 µM [falling, full curve, poor fit] |  |
| Cc1cc2occ(CC(=O)NC3=NCCS3)c2cc1C(C)C | 1.34 |  |  |
| Cc1nc2ccccc2c2c1C(=O)N(c1cccc(C(=O)O)c1)C2=O | -8.47 |  |  |
| CCOC(=O)N1CCN(C(=O)CCN2C(=O)/C(=C\c3ccccc3OC)SC2=S)CC1 | -8.17 | 2.31 µM [rising, partial curve] |  |
| Cc1csc(NC(=O)c2sc3nc(-c4cccs4)ccc3c2N)n1 | -46.1 | 29.1 µM [falling, partial curve] |  |
| O=C(N/N=C/C1CCCCC1)c1cc(Cl)ccc1O | 12.3 | 29.1 µM [rising, single point] |  |
| COC(=O)[C@@H](NC(=O)Nc1cccc(Br)c1)C(C)C | 56.4 | 0.82 µM [falling, full curve, poor fit] | 29.1 µM [rising, single point] |
| O=C(NCc1ccc(F)cc1)c1noc2c1CCCC2 | 44.1 | 25.9 µM [rising, partial curve] | 0.092 µM [rising, full curve, poor fit] |
| CCc1ccc(S(=O)(=O)Nc2ccc(-c3nc4cccnc4s3)cc2)s1 | 41 | 6.51 µM [rising, single point] | 20.6 µM [rising, partial curve, poor fit] |
| CCOC(=O)NC(=O)/C(C#N)=N/Nc1c(F)cccc1F | 14.5 | 0.731 µM [falling, single point] |  |
| Cc1ccccc1OCCCN1C(=O)C(=O)c2cccc(C)c21 | -47.4 |  | 32.6 µM [falling, single point] |
| COc1cccc2c1C(=O)C=C(C)C2=O | -71 | 23.1 µM [falling, partial curve, poor fit] | 29.1 µM [falling, single point] |
| COc1cccc(C(=O)Nc2nnc(-c3ccc(OC)cc3OC)s2)c1 | 6.3 | 0.116 µM [rising, full curve, poor fit] |  |
| CCOC(=O)c1sc(=S)n(C)c1NC(=O)c1ccc(OC)cc1 | 19.8 |  | 2.91 µM [rising, single point] |

| SMILES | cell number change [%] | AC50 [1] | AC50 [2] |
| --- | --- | --- | --- |
| O=C(O)CCN1C(=O)c2ccc(NC(=O)c3cccs3)cc2C1=O | 1.65 | 29.1 µM [falling, single point] |  |
| CCCCCc1cc(=O)oc2c(C(CCN3CCCCC3)c3ccc4c(c3)OCO4)c(OC)cc(OC)c12 (stereo not drawn) | -65.4 | 29.1 µM [falling, single point] | 29.1 µM [falling, single point] |
| CCN(CC(=O)N1CCC(C(N)=O)CC1)S(=O)(=O)c1ccc(Cl)cc1 | -13 | 0.146 µM [falling, full curve, poor fit] | 0.184 µM [falling, full curve, poor fit] |
| C=CCn1c(SCc2ccc(F)cc2)nc2c1c(=O)[nH]c(=O)n2C | -2.08 | 9.2 µM [rising, single point] |  |
| CCN1CCN(c2c(Cl)cccc2NC(=O)c2ccc(Br)o2)CC1 |  | 2.91 µM [rising, partial curve] | 1.3 µM [rising, partial curve, poor fit] |
| O=C(O)c1ccc(NC(=O)c2cccc(C(=O)Nc3ccc(C(=O)O)cc3)n2)cc1 | 8.51 | 6.51 µM [rising, single point] |  |
| O=C(NCCCN1CCc2ccccc2C1)C1CCN(S(=O)(=O)N2CCCC2)CC1 | -9.63 |  |  |
| COc1ccc(-c2nnc(SCC(=O)N/N=C/c3ccccc3C(=O)O)n2-c2ccccc2)cc1 | -20.2 |  |  |
| COC(=O)C1=C(C(=O)c2ccccc2)C(c2ccccc2)n2nnnc2N1 (stereo not drawn) | -53.1 | 0.92 µM [falling, full curve] | 5.17 µM [falling, partial curve, poor fit] |
| CCOc1ccc(C(=O)N2CCCC(c3nc(-c4cccs4)no3)C2)cc1 (stereo not drawn) | 10.6 | 9.2 µM [rising, partial curve] |  |
| CC1CC(C)CN(c2ccc(C(=O)NCc3ccc4c(c3)OCO4)cc2[N+](=O)[O-])C1 (stereo not drawn) | -29.3 | 25.9 µM [falling, single point] |  |
| Cc1onc(-c2c(Cl)cccc2Cl)c1C(=O)NC(=S)N1CCOCC1 | -14.7 | 1.16 µM [falling, full curve] |  |
| CCCc1ccc(-c2cc(C(=O)Nc3ccc([N+](=O)[O-])cn3)c3ccccc3n2)cc1 | 21.8 |  |  |
| Cc1ccc(S(=O)(=O)N(C)C)cc1NC(=O)CSc1nc2ccccc2c(=O)n1CC1CCCO1 (stereo not drawn) |  | 0.651 µM [falling, full curve, poor fit] |  |
| COC(=O)C1CCN(C(=O)COC(=O)CSc2ccc(C(N)=O)cc2[N+](=O)[O-])CC1 | -25 | 20.6 µM [rising, single point] |  |
| COC(=O)c1cc(NC(=O)Cc2cc(OC)c(OC)c(OC)c2)cc(C(=O)OC)c1 | -29.2 |  | 0.103 µM [rising, single point] |
| CCn1nc(C(=O)Nc2ccc(C)c(C)c2)c(Cl)c1Cl | -19.5 | 2.06 µM [falling, partial curve, poor fit] |  |
| O=C(Cc1c(Cl)cccc1Cl)N1CCN(S(=O)(=O)c2cccs2)CC1 | 30.1 | 0.0731 µM [rising, full curve, poor fit] | 0.103 µM [rising, full curve, poor fit] |

Two neighbouring entries from above, for reference:

| SMILES | cell number change [%] | AC50 [1] | AC50 [2] |
| --- | --- | --- | --- |
| CCCCCc1cc(=O)oc2c(C(CCN3CCCCC3)c3ccc4c(c3)OCO4)c(OC)cc(OC)c12 (stereo not drawn) | -65.4 | 29.1 µM [falling, single point] | 29.1 µM [falling, single point] |
| CCN(CC(=O)N1CCC(C(N)=O)CC1)S(=O)(=O)c1ccc(Cl)cc1 | -13 | 0.146 µM [falling, full curve, poor fit] | 0.184 µM [falling, full curve, poor fit] |
